{"source": "patent US9192611B2", "about": "“Formulations comprising methylthioninium chloride” (WisTa Laboratories Ltd., priority 2010, dated 2015)", "key": {"[1]": {"assay": "Thermodynamic stability of MTC hydrates as a function of RH and temperature"}, "[2]": {"conditions": "background statement; cited from earlier work"}}, "note": "At least one structure is not confirmed: it was looked up by name or label, or the drawing left a doubt."}
{"smiles": "CN(C)c1ccc2nc3ccc(=[N+](C)C)cc-3sc2c1", "note": "[Form B, Methylthioninium chloride]", "values": [{"measurement": "a(H2O) at which the free energy curve of Form B crosses that of Form A", "setting": "[1]; 25° C., below this value Form B is more stable than Form A", "value": 0.35}]}
{"smiles": "CN(C)c1ccc2nc3ccc(=[N+](C)C)cc-3sc2c1", "note": "[Form A, Methylthioninium chloride]", "values": [{"measurement": "RH at which Form A is relatively unstable", "setting": "[1]; 25° C.", "value": "below 40 % RH"}, {"measurement": "RH down to which the form is the most stable (lowest free energy)", "setting": "[1]; 25° C., a(H2O)=0.4", "value": "ca. 40%"}, {"measurement": "RH at which Form A is relatively unstable", "setting": "[1]; 40° C.", "value": "below 50 % RH"}, {"measurement": "RH down to which the form is considered stable", "setting": "[2]", "value": "approximately 35 % RH"}]}
